Measurements reported in publication doi:10.1101/160580 (bioRxiv, 2017).
Results are given in words; binding and its absence hold for the method and conditions named.

Biological target: F104A lysin (monomeric mutant of red abalone sperm lysin) (Haliotis rufescens (red abalone)) (UniProt P04552)
Test: NMR relaxation

binding: no binding (tested: ∼150-450 μM)
B1: F104A lysin (monomeric mutant of red abalone sperm lysin) (natural protein)
chain: RSWHYVEPKFLNKAFEVALKVQIIAGFDRGLVKWLRVHGRTLSTVQKKALYFVNRRYMQTHWANYMLWINKKIDALGRTPVVGDYTRLGAEIGRRIDMAYFYDALKDKNMIPKYLPYMEEINRMRPADVPVKYMGK
